Our source for the binding signal values is article PMC7819943, “Rice protein-binding microarrays: a tool to detect cis-acting elements near promoter regions in rice”.

Amino acid sequences for entries named in this document (tags omitted).
UniProt Q0JBA9, entry or part of it: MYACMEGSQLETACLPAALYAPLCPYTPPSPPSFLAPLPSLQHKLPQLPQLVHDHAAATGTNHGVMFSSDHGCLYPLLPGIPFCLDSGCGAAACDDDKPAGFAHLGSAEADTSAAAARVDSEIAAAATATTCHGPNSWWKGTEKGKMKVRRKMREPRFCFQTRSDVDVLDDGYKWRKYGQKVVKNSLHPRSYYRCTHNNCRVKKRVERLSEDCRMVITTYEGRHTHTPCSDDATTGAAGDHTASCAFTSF

This is one part of the list.

For the experiment, the target named is OsWRKY34 (Oryza sativa, UniProt Q0JBA9 1-250). Description: protein-binding microarray (RPBM); PBS, 2% BSA, 51.3 ng/ul salmon testes DNA, 50 uM zinc acetate, 200 nM TF, 25 C, 1 h; high values mean tight binding. To be noted: protein: recombinant; tags: N-terminal polyhistidine and DsRed monomer fusion (pET32a); label: CyDye5-dUTP incorporated in the synthesized complementary strand; 3' TTTTT single-stranded linker to array surface; dsDNA, one strand shown. The method in brief:
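The binding signal is fluorescence intensity per array feature (arbitrary units). Readings came from an Axon 4000B scanner after a washed, 2% BSA-blocked, double-stranded custom Agilent array had been incubated for 1 h at 25 °C with 200 nM protein and 50 µM zinc acetate. The protein was a Ni–NTA-purified transcription factor fused N-terminally to polyhistidine and DsRed, expressed in E. coli BL21-CodonPlus.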
Regarding “GAGAGGGAGGGAGGGAGGAGGAGGAGGAGGAGGAGGAGGACGGAGTCACCTAGTGCAG”, the binding signal is 10500 fluorescence intensity (a.u.).
The result for “AGCACGAATCGATCTGATGACCTGTTCTCTTCTTCTATACCGGAGTCACCTAGTGCAG” reads 8600 fluorescence intensity (a.u.); that for “GGTGACATGATTTAAGACCAATTGTGTACTTTTACTATTTCGGAGTCACCTAGTGCAG”, 8970 fluorescence intensity (a.u.).
Next, “TTTTCTCATATGTTTGACCATTCGTCTTATTCAAAAAATTCGGAGTCACCTAGTGCAG”: 9000 fluorescence intensity (a.u.); “AGCTATACTATTACCGTTTTCACTGCCAATAACCGGCGACCGGAGTCACCTAGTGCAG”: 8380 fluorescence intensity (a.u.); “GCGGATGGAATGGCAAGGGAGGAAACTGGTGGGGTGGGAGCGGAGTCACCTAGTGCAG”: 8960 fluorescence intensity (a.u.).
Next, “AAGTTCATCCCGCTGTATCTATTTTGATTTAGACTAGCTTCGGAGTCACCTAGTGCAG”: 8830 fluorescence intensity (a.u.).
In the case of “ACAAATGACCACGATTTTTTACCTCCTCACCCTACTAGACCGGAGTCACCTAGTGCAG”, the binding signal is 8210 fluorescence intensity (a.u.).
Next, “GTAGAGTTTGCGTGCGTGTCAGCGTGTGTTTATAGGAGTGCGGAGTCACCTAGTGCAG”: 8120 fluorescence intensity (a.u.).
The result for “CCACGTCACCTCCTCCGCTATCCCGCGCGCCGCGCGGCGTCGGAGTCACCTAGTGCAG” reads 8820 fluorescence intensity (a.u.); that for “CTCAGTTCTCGATCGATCTCTTCTTCGTCTTCTGCGTCGTCGGAGTCACCTAGTGCAG”, 13300 fluorescence intensity (a.u.).
The result for “GTTCTTGCTCTCATCTTGCTCGTGGCGTGGTAGTCTTCGACGGAGTCACCTAGTGCAG” reads 11300 fluorescence intensity (a.u.).
With “TCAGCAAGCACTTAACCAGTTTTGTATTCATCGTTTATTCCGGAGTCACCTAGTGCAG”, the binding signal was 12200 fluorescence intensity (a.u.).
The result for “AAACTCTGGATTTCCGTGCCAACGTTTGACCGTCTGTCTTCGGAGTCACCTAGTGCAG” reads 8810 fluorescence intensity (a.u.); that for “ACTACTCTTTACTTGAACCTTGAACGTTTGCCCTTGTCAACGGAGTCACCTAGTGCAG”, 14100 fluorescence intensity (a.u.); that for “CTGTTGACACTGCCCAGAGATACGAGCATGCATTTTCAAACGGAGTCACCTAGTGCAG”, 9020 fluorescence intensity (a.u.).
Next, “AAGAAATTCGAATGGTTCCGTAGTCCATCACCCTCGCTCACGGAGTCACCTAGTGCAG”: 8350 fluorescence intensity (a.u.); “TCAATGCCATCCTCATCATGGCAATCACAGCTTGTACGTACGGAGTCACCTAGTGCAG”: 9690 fluorescence intensity (a.u.); “GGCTCGTCGGATCCTGCTGAATCTCGCGTCGGCGTCGGCGCGGAGTCACCTAGTGCAG”: 8170 fluorescence intensity (a.u.).
“TACACTTGCCCGGTCATAACCCTAACCATTTCTTCCCTTCCGGAGTCACCTAGTGCAG”: the binding signal is 9660 fluorescence intensity (a.u.).
With “ACTTGATTTGCTTAAAGGTTTTTCTCGTCTCTAGTTAATTCGGAGTCACCTAGTGCAG”, the binding signal is 12000 fluorescence intensity (a.u.).
Next, “ATGATAGCTTCTCCTCTACTATTAATACCCCTTCTACTTCCGGAGTCACCTAGTGCAG”: 9260 fluorescence intensity (a.u.).
As to “TCCCCGCAACCATTGTATTTCACGTGACCGCACCGTTGTCCGGAGTCACCTAGTGCAG”, the binding signal is 9420 fluorescence intensity (a.u.).
As for “GGTGGATTCATGGTGTGTTTAGAACAGTTTTGCTAATAGGCGGAGTCACCTAGTGCAG”, the binding signal was 9130 fluorescence intensity (a.u.).
The result for “CCACCACTGTCCTTCTCGCTTGCCGTGCCTCATCACCGCCCGGAGTCACCTAGTGCAG” reads 8160 fluorescence intensity (a.u.); that for “TTCCCCGTGCCGTCCGCCGGAGCGGAGCACTCGTTACCATCGGAGTCACCTAGTGCAG”, 8380 fluorescence intensity (a.u.); that for “ATACTAGGCTGTATCTCTCTCGCTCTCTTGTTGTTCCCTCCGGAGTCACCTAGTGCAG”, 18200 fluorescence intensity (a.u.).
The result for “GGATCTTCCACCACCCGACTCCAAAGTCCTTCCTAACCCACGGAGTCACCTAGTGCAG” reads 8250 fluorescence intensity (a.u.); that for “CTCTATGTCTCGCCGTTGCTCCTCTACCTTGCTCTTTCAGCGGAGTCACCTAGTGCAG”, 9470 fluorescence intensity (a.u.); that for “CGTAACGTGCCCGTCCGCTTCCGCGCCTCCTCGCCCGCCTCGGAGTCACCTAGTGCAG”, 9690 fluorescence intensity (a.u.).
Consider “GGGGTGGTGGTGGTGGCGGCGGCAGTGTTGTTGGTCGCCGCGGAGTCACCTAGTGCAG”, for which the binding signal was 13500 fluorescence intensity (a.u.).
Turning to “CTCCGCTCCGCTCCACCGCCCGAGTGCTCGCCTGCCGCCGCGGAGTCACCTAGTGCAG”, the binding signal was 9060 fluorescence intensity (a.u.).
As for “CTCGTCGTCTCCTCCGCTCCTTGCGCCATCTCGCGGCTGACGGAGTCACCTAGTGCAG”, the binding signal is 11500 fluorescence intensity (a.u.).
On to “ACAACTTCTTGTTCAATCGACTTGTTTATTACTGATTTTACGGAGTCACCTAGTGCAG”, for which the binding signal is 9340 fluorescence intensity (a.u.).
Next, “TCGAAACCCGTTCACCGCATATTTATCTGAACCTCGTACACGGAGTCACCTAGTGCAG”: 8140 fluorescence intensity (a.u.); “AGATTATTATTCATTTGTAAATATACCGTTTGGCTTATTCCGGAGTCACCTAGTGCAG”: 10700 fluorescence intensity (a.u.).
Consider “TCCCTTTTCTTATCCCATCCGTGGCCATCTCTGAAAAGGACGGAGTCACCTAGTGCAG”, for which the binding signal is 10600 fluorescence intensity (a.u.).
Next, “CCTCCTCCTCACGCTCCGCGCGCCGCACGCCCGCCTCGCCCGGAGTCACCTAGTGCAG”: 9000 fluorescence intensity (a.u.).
On to “TTCTAAGAAATCCTTCAAGCGGCCGGCTTATCGCTTTATCCGGAGTCACCTAGTGCAG”, for which the binding signal was 15800 fluorescence intensity (a.u.).
For the sequence “AAACAAGACCATAATGTATTAATCACTTGCGTTGACAACACGGAGTCACCTAGTGCAG”, the binding signal was 8360 fluorescence intensity (a.u.).
In the case of “AATTTGTGTACTAATAAATCAATTCGTTTTGCGGGCGGGACGGAGTCACCTAGTGCAG”, the binding signal was 8380 fluorescence intensity (a.u.).
On to “TGCACTTCACTCTTGTTCTTTTAACTTACTGTATGCATAACGGAGTCACCTAGTGCAG”, for which the binding signal is 8080 fluorescence intensity (a.u.).
